Source: PubChem BioAssay AID1224830 (NIAID, 2016)
In all, the deposit lists about 18,000 reagents; below is an unselected part. Over the whole deposit, about 2,900 (16%) are marked active. 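Calls are made per well; low scores hint the gene aids the LPS response, high scores that it dampens it.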 A number with no mark means an inactive call. Repeated entries: four replicate wells of each siRNA pool.

Screen: 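Regulators of TLR4 signalling towards TNF-alpha in macrophage-like cells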 (primary screen)
System: human THP-1 monocytic leukaemia cells, TNF dual-luciferase reporter clone, PMA-differentiated to macrophage-like cells
Reagent: siRNA pool against human genes, 50 nM
Duration: LPS for 4 h, given about 3 days after siRNA transfection
Conditions: bacterial LPS (TLR4 ligand), 10 ng/ml
Measurement: 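Ratio of firefly to renilla light, scaled to the plate median and expressed as a robust z-score per replicate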
Reading the numbers: TNF reporter robust z-score: higher = stronger TNF reporter response to LPS
Active means: 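Each well counts as active if its z-score is over 2.8 or under -1.5; controls are left without a call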

| Gene | PubChem SID | TNF reporter robust z-score |
| --- | --- | --- |
| CKMT1B | SID315447944 | 0.51 |
| CKMT1B | SID315447944 | 0.68 |
| CKMT1B | SID315447944 | 0.61 |
| CKMT1B | SID315447944 | 0.79 |
| PIM2 | SID315454554 | 0 |
| PIM2 | SID315454554 | -0.06 |
| PIM2 | SID315454554 | 0.32 |
| PIM2 | SID315454554 | 0.78 |
| TAS1R1 | SID315459827 | -0.81 |
| TAS1R1 | SID315459827 | 0.67 |
| TAS1R1 | SID315459827 | -0.41 |
| TAS1R1 | SID315459827 | 0.68 |
| GNG13 | SID315456888 | 0.21 |
| GNG13 | SID315456888 | 0.11 |
| GNG13 | SID315456888 | -0.07 |
| GNG13 | SID315456888 | 2.73 |
| DYNC1I2 | SID315448346 | -0.64 |
| DYNC1I2 | SID315448346 | -0.56 |
| DYNC1I2 | SID315448346 | -0.79 |
| DYNC1I2 | SID315448346 | -0.78 |
| PRIM1 | SID315450786 | 1.65 |
| PRIM1 | SID315450786 | 1.11 |
| PRIM1 | SID315450786 | 0.38 |
| PRIM1 | SID315450786 | 2.46 |
| NTAN1 | SID315461589 | 0.23 |
| NTAN1 | SID315461589 | 1.01 |
| NTAN1 | SID315461589 | 0.25 |
| NTAN1 | SID315461589 | 0.27 |
| PRB2 | SID315465140 | 1.33 |
| PRB2 | SID315465140 | 0.67 |
| PRB2 | SID315465140 | 1.23 |
| PRB2 | SID315465140 | 0.74 |

7 neighbouring entries already listed, quoted:
| Gene | PubChem SID | TNF reporter robust z-score |
| --- | --- | --- |
| CKMT1B | SID315447944 | 0.51 |
| CKMT1B | SID315447944 | 0.68 |
| CKMT1B | SID315447944 | 0.61 |
| CKMT1B | SID315447944 | 0.79 |
| PIM2 | SID315454554 | 0 |
| PIM2 | SID315454554 | -0.06 |
| PIM2 | SID315454554 | 0.32 |

The listing continues:
| Gene | PubChem SID | TNF reporter robust z-score |
| --- | --- | --- |
| TRRAP | SID315452462 | -1.34 |
| TRRAP | SID315452462 | -0.13 |
| TRRAP | SID315452462 | -0.7 |
| TRRAP | SID315452462 | 0.16 |
| RIPK1 | SID315452785 | -0.63 |
| RIPK1 | SID315452785 | -1.05 |
| RIPK1 | SID315452785 | -0.74 |
| RIPK1 | SID315452785 | -0.86 |
| COQ8B | SID315459574 | 0.44 |
| COQ8B | SID315459574 | 0.35 |
| COQ8B | SID315459574 | 0.07 |
| COQ8B | SID315459574 | -0.56 |
| VWA5A | SID315449790 | 0.55 |
| VWA5A | SID315449790 | -0.27 |
| VWA5A | SID315449790 | -0.43 |
| VWA5A | SID315449790 | -0.46 |
